{"sequences": {"note": "The chains behind the UniProt entries cited, without tags or fusion partners. Where a name states a change or a piece, a line headed by the entry shows the natural chain unless it says otherwise.", "UniProt P01375": "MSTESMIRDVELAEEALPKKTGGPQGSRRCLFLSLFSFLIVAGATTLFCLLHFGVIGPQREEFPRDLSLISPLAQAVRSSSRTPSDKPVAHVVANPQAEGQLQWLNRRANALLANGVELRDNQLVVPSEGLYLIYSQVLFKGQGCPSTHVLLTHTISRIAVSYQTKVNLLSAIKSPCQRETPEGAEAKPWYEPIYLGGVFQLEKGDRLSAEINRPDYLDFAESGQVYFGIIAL"}, "source": "patent US20170107282A1", "about": "(CELL MEDICA SWITZERLAND, published 2017)", "binders": {"B1": {"name": "scFv1 (scFv)", "scFv": "EIVMTQSPSTLSASVGDRVIITCQASQSISSYLAWYQQKPGKAPKLLIYWASTLASGVPSRFSGSGSGTEFTLTISSLQPDDFATYYCQSYYYTSNNSDGFWAFGQGTKLTVLGGGGGSGGGGSGGGGSGGGGSEVQLVESGGGLVQPGGSLRLSCKASGIDFSNSGITWVRQAPGKGLEWVGYIYPGFGIRNYANSVRGRFTISRDTSKNTVYLQMNSLRAEDTAVYYCARDPIYASSSGYADIWGQGTLVTVSS"}}, "target": "natural form of human TNF alpha (human) (UniProt P01375)", "experiment": "sandwich ELISA, scFv immobilized, TNF alpha at 5 ng/mL", "note": "No constants are given. Whether binding was seen depends on the method and setting. Binding calls can cover weak binding; strength is not graded here.", "data": [{"binder": "B1", "values": [{"measurement": "binding", "result": "binds"}]}]}
